# Data as given in the supplement of paper PMC9135407.
# “And” between values parts separate entries of the source, which are not always exact repeats. Equal entries are not always repeated. Structures can show the parent of a compound that is named as a salt. ± gives the standard deviation of the averaged measurements. The list shows a part of the results. Baselines shift from plate to plate; read single values as rough.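 Culture-activated primary human stellate myofibroblasts, where regained lipid droplets signal inactivation. Value: share of Hoechst-counted cells above a per-plate Bodipy cutoff, in duplicate wells, with DMSO negative and nortriptyline positive controls on each plate. Hits: a control-normalized score above the plate's top-tenth-percentile nortriptyline wells, or one of a plate's three best wells. Final well concentrations are not given.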
# Test system: primary human hepatic stellate cells (donor 1)
# Assay: percent Bodipy-positive cells; higher = more lipid droplet accumulation
# Conditions: 48 h
# [1] = library stock concentration: 10 mM
# [2] = library stock concentration: 1 mM
# [3] = library stock concentration: 3.33 mM
structure (smiles),measurement,setting,value
"c1ccc(C2CNCc3ccccc32)cc1 (centres undefined) [4-Phenyl-1,2,3,4-tetrahydroisoquinoline hydrochloride]",percent Bodipy-positive cells,[1],26.4 ± 7.5%
CCCCCC[C@H]1C(=O)O[C@H](C)[C@H](NC(=O)c2cccc(NC=O)c2O)C(=O)O[C@@H](C)[C@@H]1OC(=O)CC(C)C [Antimycin A],percent Bodipy-positive cells,,43.8 ± 3.8%
COc1ccc2c(c1)[nH]c1c(C)nccc12.Cl [Harmine hydrochloride],percent Bodipy-positive cells,,87.3 ± 5.2%
NC(C(=O)O)c1nn[nH]n1 (racemic) [(RS)-(Tetrazol-5-yl)glycine],percent Bodipy-positive cells,[1],9.53 ± 3.8%
CCCN(CCC)[C@H]1CCc2c(F)ccc(O)c2C1 [S(-)-UH-301 hydrochloride],percent Bodipy-positive cells,[1],50 ± 6%
CCCCC/C=C\C/C=C\C/C=C\C/C=C\CCCC(N)=O [Arachidonoyl amide],percent Bodipy-positive cells,[2],14 ± 9%
CCCCC/C=C\C/C=C\C/C=C\C/C=C\CCCC(N)=O [Arachidonamide],percent Bodipy-positive cells,[2],13 ± 11%
CCCCCCCCCOc1ccc2[nH]cc(CCN)c2c1 [5-Nonyloxytryptamine],percent Bodipy-positive cells,library stock concentration: 9.9 mM,91.6 ± 6.1%
CCCN1CCC[C@@H]2Cc3n[nH]cc3C[C@H]21 [(?)-Quinpirole dihydrochloride],percent Bodipy-positive cells,[1],22 ± 4.4%
CCCN1CCC[C@@H]2Cc3n[nH]cc3C[C@H]21 [(-)-Quinpirole hydrochloride],percent Bodipy-positive cells,,7.38 ± 1.5%
same,percent Bodipy-positive cells,[1],13.8% and 8.76%
CCCN1CCC[C@@H]2Cc3n[nH]cc3C[C@H]21 [Quinpirole HCl (-)-],percent Bodipy-positive cells,library stock concentration: 9.1 mM,11.1 ± 3.2%
CCCCCCCCCCCCCCCCOC[C@@H](O)COP(=O)([O-])OCC[N+](C)(C)C,percent Bodipy-positive cells,[2],14.2% and 10.3%
"CC12NC(Cc3ccccc31)c1ccccc12 (single isomer, unassigned; (+)) [(+)-MK 801 maleate]",percent Bodipy-positive cells,[1],19 ± 2%
CCN1CCN(C(=O)Cc2ccc(Nc3ncc(F)c(Nc4ccc(C(=O)Nc5ccccc5Cl)cc4)n3)cc2)CC1 [Aurora A Inhibitor I],percent Bodipy-positive cells,[1],97.9 ± 1.9%
CC(C)c1cccc(C(C)C)c1O,percent Bodipy-positive cells,[1],28.2 ± 2.3%
CC(C)c1cccc(C(C)C)c1O [Propofol],percent Bodipy-positive cells,,20.9 ± 5.7%
same,percent Bodipy-positive cells,[1],62.6 ± 1.7%
CCCCCC(=O)N[C@H]1CCOC1=O [N-hexanoyl-L-Homoserine lactone],percent Bodipy-positive cells,[2],6.79 ± 1.4%
Cc1nccc2c1[nH]c1cc(O)ccc12 [Harmol hydrochloride],percent Bodipy-positive cells,[1],58.2 ± 25%
Oc1ccc2c3c1O[C@H]1[C@@H](O)CC[C@@]4(O)[C@@H](C2)N(CC2CCC2)CC[C@]314 [Nalbuphine],percent Bodipy-positive cells,[1],16.2 ± 2.6%
Oc1ccc2c3c1O[C@H]1[C@@H](O)CC[C@@]4(O)[C@@H](C2)N(CC2CCC2)CC[C@]314 [Nalbuphine hydrochloride],percent Bodipy-positive cells,,33.4 ± 20%
same,percent Bodipy-positive cells,library stock concentration: 5.1 mM,29.5 ± 11%
same,percent Bodipy-positive cells,[1],31.1 ± 13%
O=C1CN=C(c2cccc(Br)c2)c2oc3ccccc3c2N1,percent Bodipy-positive cells,[1],21.5 ± 0.7%
COC1=CC(=O)O[C@@H](/C=C/c2ccccc2)C1 [Kawain],percent Bodipy-positive cells,,34.5 ± 3.7%
COC1=CC(=O)O[C@@H](/C=C/c2ccccc2)C1 (racemic) [Kavain (+/-)],percent Bodipy-positive cells,library stock concentration: 21.7 mM,31.1 ± 7.2%
O=C(O)CC[N+](=O)[O-] [3-Nitropropionic acid],percent Bodipy-positive cells,[1],25.7 ± 6.8%
CN1CCc2cc3c(cc2[C@H]1[C@@H]1OC(=O)c2c1ccc1c2OCO1)OCO3 [Bicuculline (+)],percent Bodipy-positive cells,,25.4 ± 0.74%
OCc1cnc[nH]1 [4-Imidazolemethanol hydrochloride],percent Bodipy-positive cells,[1],54.7 ± 4.7%
CO[C@H]1[C@H](O)[C@@H](O[C@H]2CC[C@]3(C=O)C4CC[C@]5(C)[C@@H](C6=CC(=O)OC6)CC[C@]5(O)C4CC[C@@H]3C2)O[C@@H](C)[C@@H]1O (some centres undefined) [Peruvoside],percent Bodipy-positive cells,[1],96.05 ± 0.25%
CC(=O)O[C@H]1CC[C@@]2(C)C(=CC[C@@H]3[C@@H]2CC[C@]2(C)C(=O)CC[C@@H]32)C1 [Prasterone acetate],percent Bodipy-positive cells,[1],46.3 ± 5.2%
CC(=O)O[C@H]1CC[C@@]2(C)C(=CC[C@@H]3[C@@H]2CC[C@]2(C)C(=O)CC[C@@H]32)C1 [Dehydroisoandosterone 3-acetate],percent Bodipy-positive cells,,9.79 ± 4.3%
O=C(NCNC(=O)NC1C(=O)NC(=O)N1CO)NC1C(=O)NC(=O)N1CO (centres undefined) [Imidurea],percent Bodipy-positive cells,,10.9 ± 2.5%
O=[N+]([O-])c1ncc[nH]1 [Azomycin],percent Bodipy-positive cells,[3],8.75 ± 2.5%
same,percent Bodipy-positive cells,[1],12.4 ± 2.1%
CO/C1=C\C(C)=C\[C@@H](C)[C@@H](O)[C@@H](C)C/C(C)=C/C=C/[C@H](OC)[C@@H]([C@@H](C)[C@@H](O)[C@H](C)[C@@]2(O)C[C@@H](O)[C@H](C)[C@@H](C(C)C)O2)OC1=O [Bafilomycin A1],percent Bodipy-positive cells,library stock concentration: 800 uM,98.81 ± 0.93%
CN1C[C@H](CNC(=O)OCc2ccccc2)C[C@@H]2c3cccc4c3c(cn4C)C[C@H]21 [Metergoline],percent Bodipy-positive cells,[1],98.5 ± 1.1%
CCCCCCCC/C=C\CCCCCCCC(=O)Nc1ccccc1 [Oleyl Anilide],percent Bodipy-positive cells,[2],12.8 ± 2.5%
C[C@H](CCC(=O)O)C[C@H](C)C[C@H](C)C(=O)/C=C(\O)[C@H](C)C[C@H](C)C/C=C/[C@@H](C)[C@@H](O)[C@@H](C)[C@@H](O)C[C@@H]1CC[C@@](C)([C@H]2CC[C@@](C)([C@@H](C)O)O2)O1 [Ionomycin],percent Bodipy-positive cells,library stock concentration: 7.1 mM,79.77 ± 0.32%
C[C@@H]1CC[C@@]2(OC1)O[C@H]1C[C@H]3[C@@H]4CC=C5C[C@@H](O[C@@H]6O[C@H](CO)[C@@H](O[C@@H]7O[C@@H](C)[C@H](O)[C@@H](O)[C@H]7O)[C@H](O)[C@H]6O[C@@H]6O[C@@H](C)[C@H](O)[C@@H](O)[C@H]6O)CC[C@]5(C)[C@H]4CC[C@]3(C)[C@H]1[C@@H]2C [Dioscin],percent Bodipy-positive cells,[3],98.7 ± 1.9%
same,percent Bodipy-positive cells,[1],100%
C=CCN1CC[C@]23c4c5ccc(O)c4O[C@H]2C(=O)CC[C@@]3(O)[C@H]1C5 [Naloxone hydrochloride],percent Bodipy-positive cells,,20.6 ± 5.6%
same,percent Bodipy-positive cells,[1],11.5% and 25.2% and 8.47%
C=CCN1CC[C@]23c4c5ccc(O)c4O[C@H]2C(=O)CC[C@@]3(O)[C@H]1C5 [Naloxone HCl],percent Bodipy-positive cells,library stock concentration: 6.1 mM,7.23 ± 2.6%
C=CCN1CC[C@]23c4c5ccc(O)c4O[C@H]2C(=O)CC[C@@]3(O)[C@H]1C5,percent Bodipy-positive cells,[1],35.7 ± 11%
NC(=O)c1cc(N2CC2)c([N+](=O)[O-])cc1[N+](=O)[O-],percent Bodipy-positive cells,[1],41.4 ± 15%
Cn1cc(C2=C(c3cn(C4CCN(Cc5ccccn5)CC4)c4ccccc34)C(=O)NC2=O)c2ccccc21,percent Bodipy-positive cells,library stock concentration: 80 uM,12.5 ± 5.9%
same,percent Bodipy-positive cells,library stock concentration: 400 uM,11.6 ± 3.6%
same,percent Bodipy-positive cells,library stock concentration: 2 mM,9.67 ± 1.5%
same,percent Bodipy-positive cells,[3],6.99 ± 3.2%
same,percent Bodipy-positive cells,[1],11.7% and 15.1%
O=c1n(Cl)c(=O)n(Cl)c(=O)n1Cl,percent Bodipy-positive cells,[1],29.3 ± 1.8%
CP(=O)(O)C1=CCNCC1,percent Bodipy-positive cells,[1],13.9 ± 0.31%

# Reformatted tab-delimited: entries from further up.
structure (smiles)	measurement	setting	value
CCCCCC(=O)N[C@H]1CCOC1=O [N-hexanoyl-L-Homoserine lactone]	percent Bodipy-positive cells	[2]	6.79 ± 1.4%
CO[C@H]1[C@H](O)[C@@H](O[C@H]2CC[C@]3(C=O)C4CC[C@]5(C)[C@@H](C6=CC(=O)OC6)CC[C@]5(O)C4CC[C@@H]3C2)O[C@@H](C)[C@@H]1O (some centres undefined) [Peruvoside]	percent Bodipy-positive cells	[1]	96.05 ± 0.25%
CC(=O)O[C@H]1CC[C@@]2(C)C(=CC[C@@H]3[C@@H]2CC[C@]2(C)C(=O)CC[C@@H]32)C1 [Dehydroisoandosterone 3-acetate]	percent Bodipy-positive cells		9.79 ± 4.3%
O=C(NCNC(=O)NC1C(=O)NC(=O)N1CO)NC1C(=O)NC(=O)N1CO (centres undefined) [Imidurea]	percent Bodipy-positive cells		10.9 ± 2.5%
O=[N+]([O-])c1ncc[nH]1 [Azomycin]	percent Bodipy-positive cells	[1]	12.4 ± 2.1%
